PubChem BioAssay AID1159594 | NIAID, 2016

Aim: 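Mapping how TLR pathway genes contribute to TLR2/6 signalling in macrophage-like cells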
Cells: human THP-1 B5 reporter cells, PMA-differentiated into macrophage-like cells
Reagent: single siRNA against human genes
Time to read-out: 48 to 72 hours after siRNA transfection; ligand exposure 4 hours
Conditions: Pam2CSK4 (TLR2/6 agonist) stimulation for 4 hours before lysis; dose not given
Detection: 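Robust z-score, relative to negative controls, of the firefly/renilla ratio from a TNF promoter reporter, after per-plate median/MAD scaling, mean of replicate screens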
Scale: TNF reporter z-score: higher = stronger TNF promoter reporter activity
Rule for the call: 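The depositor sorts siRNAs into z-score bands with cut-offs of 2.5, 2, 1.5 and 1; grade 50 and above, meaning |z| of 1.5 or more, counts as active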
Meaning of the calls: active = z-score beyond ±1.5 (either direction); inactive = z-score within ±1.5
The whole screen tested 756 reagents; shown is a part drawn at random. Over the whole deposit, 130 (17%) got an active call. 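Active calls cover both falls and rises of reporter activity; each row reflects one siRNA, not a gene-level verdict.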 Entries without a mark were called inactive. The numbers tell different reagents against one gene apart. No sequences are given here. Not stated in the record: the amount of reagent.

TLR5 #1 gave TNF reporter z-score, replicate mean -0.246.
Against TLR5 #2, the values are TNF reporter z-score, replicate mean 0.116.
Silencing of TLR5 #3 resulted in: TNF reporter z-score, replicate mean -0.716.
Silencing of TLR5 #4 resulted in: TNF reporter z-score, replicate mean -0.147.
Silencing of TLR5 #5 gave: TNF reporter z-score, replicate mean 0.255.
TLR5 #6 showed TNF reporter z-score, replicate mean -1.8 (active).
With knock-down of MAP2K2 #1, the record shows TNF reporter z-score, replicate mean -1.17.
Silencing of MAP2K2 #2 resulted in: TNF reporter z-score, replicate mean -0.0895.
After knock-down of MAP2K2 #3, the record shows TNF reporter z-score, replicate mean -0.964.
With knock-down of MAP2K2 #4 the results were TNF reporter z-score, replicate mean 0.102.
With knock-down of MAP2K2 #5 the results were TNF reporter z-score, replicate mean -0.858.
MAP2K2 #6 gave TNF reporter z-score, replicate mean -0.671.
Silencing of NFKBIE #1 came out at: TNF reporter z-score, replicate mean -1.1.
With knock-down of NFKBIE #2, the record shows TNF reporter z-score, replicate mean -1.3.
Silencing of NFKBIE #3 resulted in: TNF reporter z-score, replicate mean -0.769.
For NFKBIE #4 the deposit lists TNF reporter z-score, replicate mean -0.353.
NFKBIE #5 showed TNF reporter z-score, replicate mean -1.47.
NFKBIE #6 gave TNF reporter z-score, replicate mean -1.96 (active).
EGR1 #1 scored TNF reporter z-score, replicate mean -2.8 (active).
Knock-down of EGR1 #2 gave: TNF reporter z-score, replicate mean -2.42 (active).
Silencing of EGR1 #3 resulted in: TNF reporter z-score, replicate mean -1.18.
For EGR1 #4, the entry reads TNF reporter z-score, replicate mean -0.97.
Against EGR1 #5, the values are TNF reporter z-score, replicate mean -0.509.
For EGR1 #6, the values are TNF reporter z-score, replicate mean -0.883.

Quoted from the listing, 9 entries:
NFKBIE #2 → TNF reporter z-score, replicate mean = -1.3
NFKBIE #3 → TNF reporter z-score, replicate mean = -0.769
NFKBIE #4 → TNF reporter z-score, replicate mean = -0.353
NFKBIE #5 → TNF reporter z-score, replicate mean = -1.47
NFKBIE #6 → TNF reporter z-score, replicate mean = -1.96 (active)
EGR1 #1 → TNF reporter z-score, replicate mean = -2.8 (active)
EGR1 #2 → TNF reporter z-score, replicate mean = -2.42 (active)
EGR1 #3 → TNF reporter z-score, replicate mean = -1.18
EGR1 #4 → TNF reporter z-score, replicate mean = -0.97

The listing continues:
SP1 #1 gave TNF reporter z-score, replicate mean -3.18 (active).
SP1 #2 gave TNF reporter z-score, replicate mean -1.81 (active).
Against SP1 #3, the entry reads TNF reporter z-score, replicate mean 1.04.
Against SP1 #4 the deposit lists TNF reporter z-score, replicate mean 1.7 (active).
Silencing of SP1 #5 resulted in: TNF reporter z-score, replicate mean -0.0229.
With knock-down of SP1 #6, the screen gave TNF reporter z-score, replicate mean -1.6 (active).
Depletion of RELA #1 resulted in: TNF reporter z-score, replicate mean -1.86 (active).
RELA #2 scored TNF reporter z-score, replicate mean -1.53 (active).
Silencing of RELA #3 resulted in: TNF reporter z-score, replicate mean -1.84 (active).
For RELA #4, the values are TNF reporter z-score, replicate mean -2.52 (active).
Silencing of RELA #5 gave: TNF reporter z-score, replicate mean -1.62 (active).
Knock-down of RELA #6 came out at: TNF reporter z-score, replicate mean -2.83 (active).
For ELK4 #1, the values are TNF reporter z-score, replicate mean -0.535.
ELK4 #2 scored TNF reporter z-score, replicate mean -1.22.
For ELK4 #3 the deposit lists TNF reporter z-score, replicate mean -0.43.
Knock-down of ELK4 #4 gave: TNF reporter z-score, replicate mean -0.618.
Knock-down of ELK4 #5 resulted in: TNF reporter z-score, replicate mean -0.313.
For ELK4 #6, the values are TNF reporter z-score, replicate mean -0.577.
With knock-down of IRAK4 #1, the screen gave TNF reporter z-score, replicate mean -0.711.
With knock-down of IRAK4 #2 the results were TNF reporter z-score, replicate mean 0.228.
For IRAK4 #3 the deposit lists TNF reporter z-score, replicate mean 0.371.
IRAK4 #4 showed TNF reporter z-score, replicate mean -0.56.
With knock-down of IRAK4 #5, the screen gave TNF reporter z-score, replicate mean -0.445.
IRAK4 #6 gave TNF reporter z-score, replicate mean -0.208.
For MAPK12 #1, the entry reads TNF reporter z-score, replicate mean 0.318.
With knock-down of MAPK12 #2, the screen gave TNF reporter z-score, replicate mean -0.826.
Silencing of MAPK12 #3 resulted in: TNF reporter z-score, replicate mean -0.244.
Knock-down of MAPK12 #4 resulted in: TNF reporter z-score, replicate mean -1.05.
Silencing of MAPK12 #5 resulted in: TNF reporter z-score, replicate mean 0.164.
For MAPK12 #6, the entry reads TNF reporter z-score, replicate mean -0.318.
Against TNF #1 the deposit lists TNF reporter z-score, replicate mean 0.0503.
TNF #2 gave TNF reporter z-score, replicate mean -2.14 (active).
After knock-down of TNF #3, the record shows TNF reporter z-score, replicate mean -2.06 (active).
TNF #4 showed TNF reporter z-score, replicate mean -0.129.
Depletion of TNF #5 came out at: TNF reporter z-score, replicate mean -1.89 (active).
Silencing of TNF #6 resulted in: TNF reporter z-score, replicate mean -3.23 (active).
